Data: paper PMC6071992
Results are given in words; binding and its absence hold for the method and conditions named. In cells and extracts the contact can be indirect. These calls come from enrichment with a bait or labelling near it, and not all partners need be listed. Tags and fused reporters may be left off the sequences shown.

The chains behind the UniProt entries cited, without tags or fusion partners.
UniProt Q13951: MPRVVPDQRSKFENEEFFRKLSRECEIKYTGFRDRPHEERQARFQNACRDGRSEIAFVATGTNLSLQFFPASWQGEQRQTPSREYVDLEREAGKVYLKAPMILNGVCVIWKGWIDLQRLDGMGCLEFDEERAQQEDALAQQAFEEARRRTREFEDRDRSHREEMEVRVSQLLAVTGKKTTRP
UniProt Q96ST8: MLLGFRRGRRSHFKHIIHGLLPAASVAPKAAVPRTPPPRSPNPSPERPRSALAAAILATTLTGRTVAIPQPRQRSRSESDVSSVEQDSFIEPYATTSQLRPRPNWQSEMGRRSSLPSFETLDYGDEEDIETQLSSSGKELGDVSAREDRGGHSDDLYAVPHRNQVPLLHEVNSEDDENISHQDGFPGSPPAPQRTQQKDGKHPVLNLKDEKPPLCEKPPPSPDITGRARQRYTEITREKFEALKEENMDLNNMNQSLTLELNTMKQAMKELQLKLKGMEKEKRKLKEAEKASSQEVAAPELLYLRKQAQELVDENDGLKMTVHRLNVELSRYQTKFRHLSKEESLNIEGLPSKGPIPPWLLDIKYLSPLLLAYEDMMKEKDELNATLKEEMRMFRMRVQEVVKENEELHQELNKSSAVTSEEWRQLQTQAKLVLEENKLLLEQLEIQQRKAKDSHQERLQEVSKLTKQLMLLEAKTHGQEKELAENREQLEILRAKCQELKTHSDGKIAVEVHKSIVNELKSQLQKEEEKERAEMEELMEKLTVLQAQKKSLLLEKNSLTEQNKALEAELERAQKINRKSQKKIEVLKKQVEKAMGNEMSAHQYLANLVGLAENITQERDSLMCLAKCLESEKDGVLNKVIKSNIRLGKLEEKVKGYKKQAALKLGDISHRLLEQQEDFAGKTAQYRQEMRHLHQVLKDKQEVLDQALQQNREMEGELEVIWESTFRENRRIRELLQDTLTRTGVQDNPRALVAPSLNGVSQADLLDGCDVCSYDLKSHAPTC
UniProt Q96PT4: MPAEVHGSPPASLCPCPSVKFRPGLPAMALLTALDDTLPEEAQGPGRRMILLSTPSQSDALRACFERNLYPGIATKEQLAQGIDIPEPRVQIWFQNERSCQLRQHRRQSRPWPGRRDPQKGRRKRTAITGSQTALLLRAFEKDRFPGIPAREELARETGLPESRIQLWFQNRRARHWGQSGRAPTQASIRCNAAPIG
UniProt P0CJ85: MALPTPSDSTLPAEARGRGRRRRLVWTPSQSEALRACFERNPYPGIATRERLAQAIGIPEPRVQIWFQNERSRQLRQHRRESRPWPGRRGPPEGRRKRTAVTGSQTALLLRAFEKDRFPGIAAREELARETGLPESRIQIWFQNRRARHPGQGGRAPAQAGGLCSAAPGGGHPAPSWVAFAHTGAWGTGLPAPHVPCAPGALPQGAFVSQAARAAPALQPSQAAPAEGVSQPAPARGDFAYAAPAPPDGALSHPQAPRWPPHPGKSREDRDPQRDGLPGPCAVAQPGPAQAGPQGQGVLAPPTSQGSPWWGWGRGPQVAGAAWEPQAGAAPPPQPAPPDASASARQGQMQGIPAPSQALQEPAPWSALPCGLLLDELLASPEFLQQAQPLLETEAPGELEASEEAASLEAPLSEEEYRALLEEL
UniProt P0CJ87: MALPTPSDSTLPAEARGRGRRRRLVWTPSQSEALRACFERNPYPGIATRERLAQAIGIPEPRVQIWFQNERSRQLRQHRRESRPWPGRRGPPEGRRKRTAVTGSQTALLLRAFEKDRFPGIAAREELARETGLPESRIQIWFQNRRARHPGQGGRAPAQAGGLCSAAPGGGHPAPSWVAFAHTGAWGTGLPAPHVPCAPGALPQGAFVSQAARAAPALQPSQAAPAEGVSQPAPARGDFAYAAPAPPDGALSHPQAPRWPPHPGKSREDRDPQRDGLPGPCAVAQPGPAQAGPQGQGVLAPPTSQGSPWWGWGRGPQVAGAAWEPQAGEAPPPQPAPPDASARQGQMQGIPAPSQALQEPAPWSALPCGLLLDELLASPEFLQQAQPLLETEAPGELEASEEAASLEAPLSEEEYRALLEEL
UniProt P56915: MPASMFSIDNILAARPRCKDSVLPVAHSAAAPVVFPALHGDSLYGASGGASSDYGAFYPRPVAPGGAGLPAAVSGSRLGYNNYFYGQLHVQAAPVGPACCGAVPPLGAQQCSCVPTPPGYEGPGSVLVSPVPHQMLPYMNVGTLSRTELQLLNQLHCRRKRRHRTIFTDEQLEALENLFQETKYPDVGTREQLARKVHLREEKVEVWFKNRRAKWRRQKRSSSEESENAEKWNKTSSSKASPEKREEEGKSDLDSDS
UniProt Q9UKS7: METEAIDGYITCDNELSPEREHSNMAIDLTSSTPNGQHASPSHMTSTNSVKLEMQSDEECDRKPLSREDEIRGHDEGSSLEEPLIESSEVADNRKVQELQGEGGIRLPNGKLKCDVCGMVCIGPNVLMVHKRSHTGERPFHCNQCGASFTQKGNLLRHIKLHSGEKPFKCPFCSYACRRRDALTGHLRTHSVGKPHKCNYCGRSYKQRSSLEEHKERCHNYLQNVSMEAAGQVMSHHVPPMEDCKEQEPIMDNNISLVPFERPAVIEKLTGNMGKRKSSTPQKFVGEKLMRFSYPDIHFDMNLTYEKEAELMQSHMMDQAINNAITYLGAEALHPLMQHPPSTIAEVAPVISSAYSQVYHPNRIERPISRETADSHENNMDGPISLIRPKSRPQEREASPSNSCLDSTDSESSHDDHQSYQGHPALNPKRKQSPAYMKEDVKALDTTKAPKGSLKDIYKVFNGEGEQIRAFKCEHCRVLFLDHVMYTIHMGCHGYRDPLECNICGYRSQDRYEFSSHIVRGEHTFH
UniProt Q7RTP6: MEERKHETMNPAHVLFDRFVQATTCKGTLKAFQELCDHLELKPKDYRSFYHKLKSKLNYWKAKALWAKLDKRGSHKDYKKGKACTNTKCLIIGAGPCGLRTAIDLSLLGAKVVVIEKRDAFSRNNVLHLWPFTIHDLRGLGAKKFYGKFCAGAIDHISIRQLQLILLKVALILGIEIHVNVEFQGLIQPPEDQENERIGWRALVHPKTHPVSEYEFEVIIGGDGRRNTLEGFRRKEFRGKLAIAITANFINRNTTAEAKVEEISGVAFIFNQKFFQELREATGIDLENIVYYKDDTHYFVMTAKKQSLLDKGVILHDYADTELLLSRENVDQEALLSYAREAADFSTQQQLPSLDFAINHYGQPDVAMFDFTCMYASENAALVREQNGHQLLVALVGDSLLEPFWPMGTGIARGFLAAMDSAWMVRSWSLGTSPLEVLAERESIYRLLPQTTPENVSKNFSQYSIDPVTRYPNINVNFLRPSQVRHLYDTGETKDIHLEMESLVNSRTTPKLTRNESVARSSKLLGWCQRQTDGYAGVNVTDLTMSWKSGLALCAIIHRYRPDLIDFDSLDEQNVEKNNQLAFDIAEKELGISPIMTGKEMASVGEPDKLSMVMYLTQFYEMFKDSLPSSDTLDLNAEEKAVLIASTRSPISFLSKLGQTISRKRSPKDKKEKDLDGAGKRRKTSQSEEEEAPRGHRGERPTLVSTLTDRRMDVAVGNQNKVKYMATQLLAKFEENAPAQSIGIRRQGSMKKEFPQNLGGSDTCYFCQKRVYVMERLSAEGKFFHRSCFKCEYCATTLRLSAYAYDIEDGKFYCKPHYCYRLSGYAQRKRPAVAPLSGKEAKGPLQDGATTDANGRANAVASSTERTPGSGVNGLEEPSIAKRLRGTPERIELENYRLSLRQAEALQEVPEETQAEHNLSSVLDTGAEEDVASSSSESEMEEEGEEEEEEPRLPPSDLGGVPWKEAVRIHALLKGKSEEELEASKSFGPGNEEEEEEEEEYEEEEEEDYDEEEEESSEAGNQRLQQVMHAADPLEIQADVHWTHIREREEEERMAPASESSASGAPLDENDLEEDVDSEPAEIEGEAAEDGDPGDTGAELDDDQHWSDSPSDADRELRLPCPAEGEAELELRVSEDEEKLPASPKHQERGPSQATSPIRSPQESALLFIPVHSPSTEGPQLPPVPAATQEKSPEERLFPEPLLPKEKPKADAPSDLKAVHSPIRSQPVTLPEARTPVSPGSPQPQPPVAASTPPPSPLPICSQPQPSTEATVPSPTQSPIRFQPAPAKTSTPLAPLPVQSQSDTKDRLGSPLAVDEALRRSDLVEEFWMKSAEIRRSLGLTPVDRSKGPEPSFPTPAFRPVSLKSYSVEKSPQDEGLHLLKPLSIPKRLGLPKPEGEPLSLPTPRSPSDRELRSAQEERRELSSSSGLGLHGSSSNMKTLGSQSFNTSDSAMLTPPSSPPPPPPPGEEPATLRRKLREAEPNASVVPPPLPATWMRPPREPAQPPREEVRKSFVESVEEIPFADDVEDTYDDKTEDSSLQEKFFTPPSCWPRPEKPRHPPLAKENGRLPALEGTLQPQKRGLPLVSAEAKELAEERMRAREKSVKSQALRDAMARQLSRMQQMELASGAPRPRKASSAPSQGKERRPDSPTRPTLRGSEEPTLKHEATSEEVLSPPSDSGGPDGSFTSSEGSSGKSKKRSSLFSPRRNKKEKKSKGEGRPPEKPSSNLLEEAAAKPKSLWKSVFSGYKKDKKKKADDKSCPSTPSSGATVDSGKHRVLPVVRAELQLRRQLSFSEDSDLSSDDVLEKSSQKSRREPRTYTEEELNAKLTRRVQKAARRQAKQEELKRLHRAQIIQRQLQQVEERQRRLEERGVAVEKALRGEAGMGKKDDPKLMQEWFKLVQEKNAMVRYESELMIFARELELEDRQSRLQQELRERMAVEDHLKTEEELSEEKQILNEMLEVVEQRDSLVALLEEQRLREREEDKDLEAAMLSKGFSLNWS
UniProt P15863: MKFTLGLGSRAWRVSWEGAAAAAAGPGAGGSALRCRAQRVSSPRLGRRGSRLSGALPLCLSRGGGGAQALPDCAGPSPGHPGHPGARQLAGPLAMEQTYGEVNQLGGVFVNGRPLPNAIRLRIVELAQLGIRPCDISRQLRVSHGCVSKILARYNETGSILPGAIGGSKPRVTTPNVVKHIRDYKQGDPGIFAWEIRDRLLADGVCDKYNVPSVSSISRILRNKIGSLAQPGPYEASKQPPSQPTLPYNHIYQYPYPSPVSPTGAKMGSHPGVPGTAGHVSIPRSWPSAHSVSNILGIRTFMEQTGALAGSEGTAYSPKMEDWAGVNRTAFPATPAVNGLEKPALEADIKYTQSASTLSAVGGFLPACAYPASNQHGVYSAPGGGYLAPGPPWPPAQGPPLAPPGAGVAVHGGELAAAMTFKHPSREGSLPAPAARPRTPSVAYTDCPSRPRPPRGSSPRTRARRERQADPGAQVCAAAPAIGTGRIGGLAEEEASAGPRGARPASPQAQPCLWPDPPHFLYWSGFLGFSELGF
UniProt Q99811: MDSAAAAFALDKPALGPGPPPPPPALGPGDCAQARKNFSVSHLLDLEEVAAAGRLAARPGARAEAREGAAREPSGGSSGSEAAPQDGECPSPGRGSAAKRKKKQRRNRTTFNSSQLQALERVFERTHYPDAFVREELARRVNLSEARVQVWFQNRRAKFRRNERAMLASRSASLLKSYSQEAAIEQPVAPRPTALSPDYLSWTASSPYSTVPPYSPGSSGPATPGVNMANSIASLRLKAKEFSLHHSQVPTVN
UniProt Q16385: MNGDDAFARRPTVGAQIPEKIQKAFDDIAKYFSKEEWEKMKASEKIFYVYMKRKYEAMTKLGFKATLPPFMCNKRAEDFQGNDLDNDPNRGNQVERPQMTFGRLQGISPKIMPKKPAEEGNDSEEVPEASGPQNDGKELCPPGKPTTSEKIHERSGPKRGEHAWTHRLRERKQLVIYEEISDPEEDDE
UniProt Q9ULW0: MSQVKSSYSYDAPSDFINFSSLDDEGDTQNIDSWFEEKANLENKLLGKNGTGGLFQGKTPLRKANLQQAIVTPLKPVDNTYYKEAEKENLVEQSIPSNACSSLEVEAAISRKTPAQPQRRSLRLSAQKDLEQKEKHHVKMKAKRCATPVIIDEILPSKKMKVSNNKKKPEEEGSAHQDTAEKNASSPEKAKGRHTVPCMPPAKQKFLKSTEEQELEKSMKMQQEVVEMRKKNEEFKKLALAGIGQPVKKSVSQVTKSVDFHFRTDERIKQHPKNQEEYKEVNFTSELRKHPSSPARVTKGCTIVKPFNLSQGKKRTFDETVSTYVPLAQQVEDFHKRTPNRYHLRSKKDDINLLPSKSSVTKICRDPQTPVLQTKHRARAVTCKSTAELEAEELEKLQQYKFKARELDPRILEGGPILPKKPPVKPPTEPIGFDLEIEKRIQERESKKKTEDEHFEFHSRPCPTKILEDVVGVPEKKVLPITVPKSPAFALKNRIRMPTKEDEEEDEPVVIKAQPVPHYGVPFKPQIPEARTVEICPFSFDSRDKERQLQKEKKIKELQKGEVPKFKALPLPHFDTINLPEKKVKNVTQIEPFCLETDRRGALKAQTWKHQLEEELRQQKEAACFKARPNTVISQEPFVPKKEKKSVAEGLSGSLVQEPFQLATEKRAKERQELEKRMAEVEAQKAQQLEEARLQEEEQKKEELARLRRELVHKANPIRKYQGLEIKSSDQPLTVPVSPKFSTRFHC

T1: mouse TBX18 protein fused to a N-terminal triple FLAG tag followed by a biotinylation signal peptide (mouse) (UniProt Q9EPZ6)
T1 sequence (chain, biotinylated on the biotinylation signal peptide by co-expressed BirA): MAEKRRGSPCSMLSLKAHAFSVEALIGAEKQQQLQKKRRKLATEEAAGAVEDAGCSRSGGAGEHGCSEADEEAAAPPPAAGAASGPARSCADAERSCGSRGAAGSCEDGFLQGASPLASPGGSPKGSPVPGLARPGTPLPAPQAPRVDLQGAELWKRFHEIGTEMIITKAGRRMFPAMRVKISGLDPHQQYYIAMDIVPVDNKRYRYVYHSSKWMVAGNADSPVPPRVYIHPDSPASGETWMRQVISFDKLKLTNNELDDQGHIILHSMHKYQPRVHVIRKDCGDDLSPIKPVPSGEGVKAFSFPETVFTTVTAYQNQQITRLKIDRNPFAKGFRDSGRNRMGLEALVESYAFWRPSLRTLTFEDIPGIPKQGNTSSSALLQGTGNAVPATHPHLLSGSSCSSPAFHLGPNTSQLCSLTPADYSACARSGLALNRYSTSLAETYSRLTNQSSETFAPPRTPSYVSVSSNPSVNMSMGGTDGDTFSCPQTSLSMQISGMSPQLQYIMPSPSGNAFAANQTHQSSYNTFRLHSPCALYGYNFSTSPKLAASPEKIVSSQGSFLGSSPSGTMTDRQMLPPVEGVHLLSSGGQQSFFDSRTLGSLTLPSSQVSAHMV


target: T1, mouse TBX18 protein fused to a N-terminal triple FLAG tag followed by a biotinylation signal peptide (mouse); assay: affinity purification with mass spectrometry; tandem affinity purification of 3xFLAG-BioTag-TBX18 from nuclear extracts of transfected 293 cells (anti-FLAG M2 on Protein A agarose, 3xFLAG peptide elution, then Strep-Tactin Superflow), SDS-PAGE, LC-MS; three independent experiments against a mock control without exogenous TBX18

binding	Molecule
binds	CBFB (from UniProt Q13951 1-182)
binds	CENPE (from UniProt Q02224 1-2701)
binds	CEP89 (from UniProt Q96ST8 1-783)
binds	CHD7 (from UniProt Q9P2D1 1-2997)
binds	DUX1 (from UniProt O43812 1-170)
binds	DUX3 (from UniProt Q96PT4 1-197)
binds	DUX4 (from UniProt Q9UBX2 1-424)
binds	DUX4L2 (from UniProt P0CJ85 1-424)
binds	DUX4L4 (from UniProt P0CJ87 1-422)
binds	DUX4L9 (from UniProt Q6RFH8 1-374)
binds	DUX5 (from UniProt Q96PT3 1-197)
binds	GSC (from UniProt P56915 1-257)
binds	IKZF2 (from UniProt Q9UKS7 1-526)
binds	MACF1 (from UniProt Q9UPN3 1-7388)
binds	MICAL3 (from UniProt Q7RTP6 1-2002)
binds	PAX1 (from UniProt P15863 1-534)
binds	PCM1 (from UniProt Q15154 1-2024)
binds	PRRX2 (from UniProt Q99811 1-253)
binds	RCOR3 (from UniProt Q9P2K3 1-495)
binds	SSXB2 (from UniProt Q16385 1-188)
binds	SUV39H2 (from UniProt Q9H5I1 1-410)
binds	TPX2 (from UniProt Q9ULW0 1-747)
binds	PBX4 (protein, UniProt Q9BYU1 1-374) MAAPPRPAPSPPAPRRLDTSDVLQQIMAITDQSLDEAQARKHALNCHRMKPALFSVLCEIKEKTVVSIRGIQDEDPPDAQLLRLDNMLLAEGVCRPEKRGRGGAVARAGTATPGGCPNDNSIEHSDYRAKLSQIRQIYHSELEKYEQACREFTTHVTNLLQEQSRMRPVSPKEIERMVGAIHGKFSAIQMQLKQSTCEAVMTLRSRLLDARRKRRNFSKQATEVLNEYFYSHLNNPYPSEEAKEELARKGGLTISQVSNWFGNKRIRYKKNMGKFQEEATIYTGKTAVDTTEVGVPGNHASCLSTPSSGSSGPFPLPSAGDAFLTLRTLASLQPPPGGGCLQSQAQGSWQGATPQPATASPAGDPGSINSSTSN
binds	EVX2 (protein, UniProt Q03828 1-476) MMERIRKEMILMERGLHSPTAGKRFSNLSNSAGNAVLEALENSQHPARLSPRLPSAPLHSALGELPAKGKFEIDTLFNLQHTGSESTVSSEISSAAESRKKPGHYSEAAAEADMSSDVEVGCSALRSPGGLGAAQLKENNGKGYAESGSAAGTTTSASGSGLGSLHGGSGGSGGSAALGGSGSGADQVRRYRTAFTREQIARLEKEFYRENYVSRPRRCELAAALNLPETTIKVWFQNRRMKDKRQRLAMSWPHPADPSFYTYMMTHAAATGSLPYPFHSHVPLHYYPHVGVTAAAAAAAASGAAAAASSPFATSIRPLDTFRALSHPYSRPELLCSFRHPGLYQAPAAAAGLNSAASAAAAAAAAAAAASSAAAAGAPPSGGSAPCSCLSCHSSQSAAAAAAAAAAALGSRGGGGGGGGGGGGGGGGAGAGGGSDFGCSAAAPRSESGFLPYSAAVLSKTAVSPPDQRDEAPLTR
binds	EVX1 (protein, UniProt P49640 1-407) MESRKDMVVFLDGGQLGTLVGKRVSNLSEAVGSPLPEPPEKMVPRGCLSPRAVPPATRERGGGGPEEEPVDGLAGSAAGPGAEPQVAGAAMLGPGPPAPSVDSLSGQGQPSSSDTESDFYEEIEVSCTPDCATGNAEYQHSKGSGSEALVGSPNGGSETPKSNGGSGGGGSQGTLACSASDQMRRYRTAFTREQIARLEKEFYRENYVSRPRRCELAAALNLPETTIKVWFQNRRMKDKRQRLAMTWPHPADPAFYTYMMSHAAAAGGLPYPFPSHLPLPYYSPVGLGAASAASAAASPFSGSLRPLDTFRVLSQPYPRPELLCAFRHPPLYPGPAHGLGASAGGPCSCLACHSGPANGLAPRAAAASDFTCASTSRSDSFLTFAPSVLSKASSVALDQREEVPLTR
